Source: ChEMBL document CHEMBL3988442, “University of Dundee, Small-Polar-MMV Screening Library” (2021).

By UniProt entry, the sequences of proteins in these tests, tags left out.
UniProt P9WFT3, whole entry: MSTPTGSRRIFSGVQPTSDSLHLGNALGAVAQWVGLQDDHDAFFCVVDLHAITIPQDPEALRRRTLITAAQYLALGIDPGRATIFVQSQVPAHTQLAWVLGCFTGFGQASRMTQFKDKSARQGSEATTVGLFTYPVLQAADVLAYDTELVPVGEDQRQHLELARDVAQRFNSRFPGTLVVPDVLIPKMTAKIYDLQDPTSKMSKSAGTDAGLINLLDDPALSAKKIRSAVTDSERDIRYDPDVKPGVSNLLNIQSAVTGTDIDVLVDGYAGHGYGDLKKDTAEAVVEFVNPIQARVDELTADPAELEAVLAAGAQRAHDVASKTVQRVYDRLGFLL

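Tryptophan-tRNA ligase, Mycobacterium tuberculosis (UniProt P9WFT3). Enzyme assay of tryptophanyl-tRNA synthetase; the read-out is not stated. Concentration: 10 µM. Direction is not recorded; retested compounds ran higher, which suggests that high means inhibition. Of about 65,000 compounds tested this way, about 64 (0.098%) reached 50% or more in at least one test.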

The filed quantity is “Percent Effect” (%). The record does not define 0% and 100%; most values in the screen are far below 50% and negative numbers occur (in some assays of this library far below -100). Compounds were drawn at random from those tested, without regard to their results.

| structure | Percent Effect |
|---|---|
| `Cc1cccc(N2CCN(Cc3nc(CC4CC4)no3)CC2)n1` | -1.365 |
| `CN1CCN(c2cc(CNC(=O)c3ccc(=O)n(C)c3)ccn2)CC1` | -4.232 |
| `N#CCCN(CCC#N)C(=O)c1cccc(N2CCNC2=O)c1` | 2.687 |
| `Cc1cnc(NC(=O)N2CCCC2)s1` | 2.515 |
| `COCCN1C[C@H](OCc2csc(C)n2)[C@H]2COC[C@H]21` | -1.502 |
| `CS(=O)(=O)CCNC(=O)C1(c2cccc(Cl)c2)CCCCC1` | 13.27 |
| `CCS(=O)(=O)N1CCC2(CC(=O)N(c3cncnc3)C2)C1` (stereo unspecified) | 2.116 |
| `CCS(=O)(=O)N(C)C1CCN(Cn2ccc(-c3ccc(F)cc3)n2)CC1` | -4.175 |
| `Cc1ccc(CC(=O)N2CCCC(n3ccnc3C(C)C)C2)cn1` (stereo unspecified) | -6.423 |
| `Cc1occc1C(=O)N1CCCN(Cc2ncc(Cl)n2C)CC1` | -4.563 |
| `Cc1ncsc1CCN1CCC(N(C)Cc2ncc(C(C)C)o2)C1` (stereo unspecified) | -0.3749 |
| `c1cnn(Cc2nnc3n2CCCN(CC2CCOCC2)C3)c1` | -2.205 |
| `Cc1cc(C)n(CC2CCCN2CC(=O)N(C)Cc2cnn(C)c2)n1` (stereo unspecified) | 1.956 |
| `Fc1cccc(CN2C[C@@H]3COC[C@]3(COCc3ccncc3)C2)c1` | 1.451 |
| `FC(F)(F)c1nc(C2CCNCC2)no1` | -3.198 |
| `CCN(CC)C(CNS(=O)(=O)c1ccc(C(C)=O)cc1)c1ccco1` (stereo unspecified) | 1.097 |
| `Cc1nc(C)n(CC2CCCN2c2ncnc3sccc23)n1` (stereo unspecified) | 6.056 |
| `CC(C)C[C@@H](CO)n1cc(-c2cnc(-c3ccco3)nc2)nn1` | 3.221 |
| `Cc1nc(C)n(C2CCCN(C(=O)c3ccc(N(C)C)nn3)C2)n1` (stereo unspecified) | 1.798 |
| `Cc1nnsc1C(=O)NCc1cccnc1N1CCCC(O)C1` (stereo unspecified) | 2.311 |
| `Cc1nc(CN2CCN(C(=O)c3ccnc(N(C)C)c3)CC2)cs1` | 0.7382 |
| `COc1cc(N2C[C@@H]3COC[C@]3(C(=O)NCc3ccccn3)C2)ncn1` | -3.876 |
| `CC(C)N(C)[C@@H]1CCN(C(=O)c2ccc[nH]2)[C@H]1Cc1cnn(C)c1` | -5.838 |
| `COc1ccc(CNCC2CCN(c3ccccc3OC)C2)cc1O` (stereo unspecified) | -4.583 |
| `COC(=O)c1cccn1C1CCN(Cc2cccc(C(N)=O)c2)CC1` | -2.783 |
| `CC(C)Nc1nc2c(c(NC3CC3)n1)CN(C(=O)c1ccnnc1)CC2` | 11.92 |
| `CC(C)c1nc(CN(C)C2CCN(Cc3nc(C4CC4)no3)C2)no1` (stereo unspecified) | -1.497 |
| `CN(CC(=O)N(C)C1CCCCC1)Cc1nc2c(cnn2C)c(=O)[nH]1` | 7.542 |
| `COc1cccc2c1OCC(CNC(=O)Cn1ccnc1C)C2` (stereo unspecified) | -8.921 |
| `Cc1noc2ncnc(N(C)Cc3ccco3)c12` | -2.386 |
| `CC(C)c1cc(C(=O)N[C@H]2CN(C3CCOCC3)C[C@@H]2C2CC2)no1` | 2.062 |
| `O=C(Cc1cc(-c2ccc3c(c2)OCCO3)on1)NCc1ccccn1` | -1.544 |
| `COc1ccc(CCCC(=O)NCc2c(C)noc2C)cc1F` | 2.799 |
| `Cc1ccc(Cl)c(C)c1NC(=O)N1CCCN(Cc2ccccn2)CC1` | 1.224 |
| `CN(C)CC1CSCCCN1C(=O)c1ccc(C(C)(C)C)cc1` (stereo unspecified) | 0.1103 |
| `Cc1cc(NC(=O)N2CCCC(CO)C2)nn1-c1ccccc1Cl` (stereo unspecified) | -1.575 |
| `CCOCC(O)CN1CCN(C(=O)Cc2cccc(C)c2)CC1` (stereo unspecified) | -0.565 |
| `CC(C)CN1CCC(NC(=O)NCCC(=O)NCc2ccccc2)CC1` | 1.125 |
| `CC(NC(=O)C1CN(c2ncnc3c2nnn3C)C1)c1ccccc1` (stereo unspecified) | 1.93 |
| `O=C(Nc1cccnc1)[C@H]1CN(Cc2nccs2)C[C@H]2OCC[C@@H]12` | -1.057 |
| `CC(C)N1CCC(CC(=O)NCC2OCCc3ccccc32)CC1` (stereo unspecified) | -0.859 |
| `CC1(C)CN=C(N2CCN(CCCN3CCOCC3)CC2)S1` | -1.322 |
| `Cc1cc(-c2nccs2)nc(C2CCN(Cc3ccncc3)CC2)n1` | 12.76 |
| `CN(Cc1ccncc1)C(=O)Nc1cnn(CC(N)=O)c1` | -3.037 |
| `Cn1cnnc1S(=O)(=O)C1CCN(C(=O)c2cccs2)CC1` | 1.715 |
| `COc1cccc(CCC(=O)N2CCN(Cc3noc(C)n3)CC2)c1` | 7.3 |
| `Cc1nn(C)c(C)c1C1CCCN1C(=O)c1ccnc(N(C)C)c1` (stereo unspecified) | -1.003 |
| `CC(C)N(C)Cc1cn2c(n1)CN(C(=O)Cc1ccccc1)CC2` | -0.2945 |
| `Cn1cc(CN2CC[C@@H]3[C@H]2CCC(=O)N3c2ccccc2)cn1` | -6.826 |
| `c1ccc(C2CN(CCc3ccncc3)CCO2)cc1` (stereo unspecified) | 3.43 |
| `C=C(C)CN(CC)Cc1nc(C)no1` | -9.779 |
| `CN(C)CC1CN(C(=O)CCc2ccccc2)Cc2nccn2C1` (stereo unspecified) | 3.475 |
| `CC(Cc1ccccn1)N(C)C(=O)c1ncc[nH]1` (stereo unspecified) | -2.632 |
| `O=C1CNc2ncnc(N3CCN(Cc4ccccc4)CC3)c2N1` | -0.3819 |
| `CCC(CNC(=O)c1ccc(C(N)=O)cc1)Oc1cccc(F)c1` (stereo unspecified) | -1.722 |
| `c1cnnc(N2CCCC2CNc2ncnc3ccsc23)c1` (stereo unspecified) | 6.134 |
| `COCC1CC2(CCN(C(=O)c3cccc(C)c3)CC2)CO1` (stereo unspecified) | -6.946 |
| `CC1CCCN(c2nccn3c(=O)[nH]nc23)C1` (stereo unspecified) | 1.988 |
| `CCc1nc(CN2CCN(C(=O)CCc3ccccc3)CC2)cs1` | 1.462 |
| `CC(=O)c1ccc(-c2cc(C(F)(F)F)cc(N(C)C)n2)cc1` | -5.004 |
| `Cc1c(CN2CCCC(c3[nH]ncc3S(C)(=O)=O)C2)cnn1C` (stereo unspecified) | -5.083 |
| `COc1cccc(CN2CCCC2Cn2nc(C)nc2C)c1` (stereo unspecified) | 2.896 |
| `CNC(=O)C(c1cccc(Cl)c1)C(C)C` (stereo unspecified) | 4.187 |
| `O=C(NCCCn1cncn1)NCC(c1ccco1)N1CCCCC1` (stereo unspecified) | 1.955 |
| `O=C(C1CN(CC2CCOCC2)CC12CCOCC2)N1CCCC1` (stereo unspecified) | -0.5489 |
| `CN(C(=O)CN1CCCc2cc(F)cc(F)c21)c1ccccc1` | -6.058 |
| `Cn1cc(CNCC2Cn3nnc(-c4ccccc4)c3CO2)cn1` (stereo unspecified) | -3.356 |
| `O=C(C1CCOCC1)N1C[C@H]2C[C@H](OCc3ccccc3)C[C@H]2C1` | -1.762 |
| `Cc1noc2ncc(C(=O)N3CCCC3c3ccsc3)cc12` (stereo unspecified) | -5.97 |
| `COc1cccc(C(=O)N2C[C@@H](CN(C)CCO)[C@@H](CO)C2)c1C` | -2.963 |
| `CC(C)S(=O)(=O)N1CCOC(CCc2ccccc2)C1` (stereo unspecified) | -1.06 |
| `CNC(=O)C(C)NC(=O)c1cc(COc2ccc(OC)cc2Cl)[nH]n1` (stereo unspecified) | -2.217 |
| `CC(C)N1CCn2c(COCC3CCOCC3)cnc2C1C` (stereo unspecified) | -2.75 |
| `COC[C@]1(O)CCN(c2cc(N3CCOCC3)ncn2)CC1(C)C` | -0.07127 |
| `CN1C(=O)CCc2cc(NC(=O)C3CC(=O)N(CC4CC4)C3)ccc21` (stereo unspecified) | 4.928 |
| `CCOc1ccc(C(=O)CCC(=O)N(C)Cc2nc(C)c[nH]2)cc1C` | -5.647 |
| `O=C(CCC1CCCO1)NS(=O)(=O)c1ccc(Cl)cc1` (stereo unspecified) | 0.2347 |
| `CN(C)CCN1C(=O)CO[C@@H]2CN(c3ncc(F)cn3)C[C@H]21` | 2.616 |
| `CCS(=O)(=O)NC1CCCN(c2ccc(F)cc2C)C1=O` (stereo unspecified) | -1.248 |
| `COc1ccc(-n2cccn2)c(CN2CCC3(CCCNC3)C2)c1` (stereo unspecified) | 3.62 |
| `Cc1cnc(CN(C)C2CCN(CC(=O)Nc3nncs3)C2)o1` (stereo unspecified) | 0.5508 |
| `Cc1nn(C)c(C)c1CC(=O)N1CCCC(n2ccnc2C)C1` (stereo unspecified) | -7.704 |
| `Cc1cccc(-c2ccc(C(=O)NCCN(C)C3CC3)c(=O)[nH]2)c1` | 0.2347 |
| `CC(C)NC(=O)Cn1ccc2c(Cl)cccc21` | 0.9104 |
| `COc1cccc(C2=CCN(CCN3CCCC3=O)CC2)c1` | -4.161 |
| `C=C(C)COc1ccc(C(=O)N(C)C(C)c2ccon2)cc1` (stereo unspecified) | -4.644 |
| `Cc1cc(C)c(CNC(=O)N2CCCC2c2cc(C)on2)c(=O)[nH]1` (stereo unspecified) | -1.562 |
| `Cc1cc(CNC(=O)C2CCC(=O)N(Cc3ccccc3F)C2)on1` (stereo unspecified) | -3.907 |
| `O=C(c1cccc(C2CCNC2)c1)N1CCC(c2ncc[nH]2)CC1` (stereo unspecified) | 6.118 |
| `COc1ccc(CN2C[C@@H]3CC[C@H](C2)N(S(=O)(=O)C2CC2)C3)cc1` | -0.2138 |

Once more, the final 10:

structure	Percent Effect
Cc1cnc(CN(C)C2CCN(CC(=O)Nc3nncs3)C2)o1 (stereo unspecified)	0.5508
Cc1nn(C)c(C)c1CC(=O)N1CCCC(n2ccnc2C)C1 (stereo unspecified)	-7.704
Cc1cccc(-c2ccc(C(=O)NCCN(C)C3CC3)c(=O)[nH]2)c1	0.2347
CC(C)NC(=O)Cn1ccc2c(Cl)cccc21	0.9104
COc1cccc(C2=CCN(CCN3CCCC3=O)CC2)c1	-4.161
C=C(C)COc1ccc(C(=O)N(C)C(C)c2ccon2)cc1 (stereo unspecified)	-4.644
Cc1cc(C)c(CNC(=O)N2CCCC2c2cc(C)on2)c(=O)[nH]1 (stereo unspecified)	-1.562
Cc1cc(CNC(=O)C2CCC(=O)N(Cc3ccccc3F)C2)on1 (stereo unspecified)	-3.907
O=C(c1cccc(C2CCNC2)c1)N1CCC(c2ncc[nH]2)CC1 (stereo unspecified)	6.118
COc1ccc(CN2C[C@@H]3CC[C@H](C2)N(S(=O)(=O)C2CC2)C3)cc1	-0.2138